In patent US20130189262A1, “IL-27 Antagonists for Treating Inflammatory Diseases” (Five Prime Therapeutics, Inc., priority 2011, published 2013):
For at least one compound, name, drawing or mass did not settle the structure.

Assays:
[1] = system: primary human bronchial epithelial cells; experiment: CXCL9 (MIG) / CXCL10 induction in air-liquid interface bronchial epithelial cells (ELISA); format: cell-based
[2] = system: primary human bronchial smooth muscle cells; experiment: CXCL10 expression with combinations of TNF-α, IL-27 and fluticasone (bDNA assay); format: cell-based; conditions: 5 ng/ml TNF-α and 25 nM fluticasone
Experimental: Primary human bronchial smooth muscle cells were cultured in the presence of 5 ng/ml TNF-αalone, 5 ng/ml TNF-α and 25 nM fluticasone; 1 μg/ml linked IL-27; 5 ng/ml TNF-α and 30 ng/ml IL-27; or 5 ng/ml TNF-α, 25 nM fluticasone, and 30 ng/ml IL-27. CXCL10 expression was determined by bDNA assay.

## C[C@@H]1C[C@H]2[C@@H]3C[C@H](F)C4=CC(=O)C=C[C@]4(C)[C@@]3(F)[C@@H](O)C[C@]2(C)[C@@]1(O)C(=O)SCF [fluticasone]
[1]; COPD donor, 100 ng/ml IL-27, 25 nM fluticasone, FIG. 10A
  effect on IL-27-induced CXCL9 expression: relatively insensitive
[1]; COPD donor, 100 ng/ml IL-27, 25 nM fluticasone, FIG. 10B
  effect on IL-27-induced CXCL10 expression: relatively insensitive
[1]; normal donor, 25 nM fluticasone, FIG. 8A
  effect on TNF-α-mediated induction of CXCL9 (MIG): suppressed the TNF-α-mediated induction of MIG expression
[1]; normal donor, 100 ng/ml IL-27, 25 nM fluticasone, FIG. 8B
  effect on IL-27 induction of CXCL9 (MIG): relatively insensitive to fluticasone suppression
[2]
  effect on TNF-α-induced CXCL10 expression: suppressed
